{"source": "PubChem BioAssay AID587", "about": "(National Center for Advancing Translational Sciences (NCATS), 2007)", "note": "Hit rate of the full screen: of about 59,000 compounds, about 35 (0.06%) were called active. Only results without a clear call are listed here; the source files them as inconclusive. No stated cut-off is given here; in the data, active means max dye-equivalent concentration above about 10 nM; inconclusive means between about 1.1 nM and that limit; inactive means weaker than that.", "data": [{"assay": "qHTS Assay for Spectroscopic Profiling in Texas Red Spectral Region", "conditions": "Compound fluorescence, Texas Red channel, 547/618 nm; hits give high values", "excerpt": "NIH Molecular Libraries Screening Centers Network [MLSCN] NIH Chemical Genomics Center [NCGC] […] Occasionally, the artifactual effect may originate from the compound#s own spectral or other biophysical properties which generally tend to track its assay concentration. Pre-screening/profiling the library with respect to the compounds# spectral properties should help one exclude false positives early on. While the most informative fluorescent profiling data set is obtained by performing a full excitation and emission scan of each well by using a monochromator-based plate reader, such an approach is practical only on a very limited scale as scanning each well requires long time. An alternative approach, applied here, is to perform plate reader scans using selected excitation and emission wavelength pairs to generate a multidimensional relational database that correlates compound concentration and the respective relative fluorescence intensity at a given wavelength set. A standard curve of Texas Red (TR) present on each plate as six-point concentration series, was used to compute a normalized fluorescence response, termed dye-equivalent concentration, for each compound at each concentration. […]", "values": [{"molecule": "NC1CCCCC1.NP(=O)(O)N(CCCl)CCCl", "max dye-equivalent concentration": "inconclusive: 2.1 nM"}]}]}
